The target in experiment [1] is C33^Rep peptide (synthetic peptide corresponding to the C-terminal 33 residues of Rep) (E. coli) (UniProt P09980). Put plainly: SPR; Figure S4; format not shown; both purified. Background: In SPR one partner is held on a chip, and binding of the other changes the refractive index at the surface.
Experiment [2] shares this target. Put plainly: SPR; C33^Rep peptide (260 resonance units) surface-immobilised via an N-terminal biotin tag; DnaB 1 μM monomers and/or DnaC 4 μM monomers, or increasing concentrations of DnaC; both purified.
Experiment [3] addresses biotinylated Rep (bait of the pull-down) (E. coli) (UniProt P09980). Briefly: pull-down; biotinylated Rep, RepΔC33 and UvrD as bait, from E. coli whole-cell extracts; Coomassie-stained gel and western blot with DnaB antibodies; only the target purified. (In general: In western blotting, separated proteins are transferred to a membrane and probed.)
Experiment [4] addresses T1, biotinylated UvrD (bait of the pull-down) (E. coli) (UniProt P03018).
T1 sequence (chain, biotinylated (site not stated)): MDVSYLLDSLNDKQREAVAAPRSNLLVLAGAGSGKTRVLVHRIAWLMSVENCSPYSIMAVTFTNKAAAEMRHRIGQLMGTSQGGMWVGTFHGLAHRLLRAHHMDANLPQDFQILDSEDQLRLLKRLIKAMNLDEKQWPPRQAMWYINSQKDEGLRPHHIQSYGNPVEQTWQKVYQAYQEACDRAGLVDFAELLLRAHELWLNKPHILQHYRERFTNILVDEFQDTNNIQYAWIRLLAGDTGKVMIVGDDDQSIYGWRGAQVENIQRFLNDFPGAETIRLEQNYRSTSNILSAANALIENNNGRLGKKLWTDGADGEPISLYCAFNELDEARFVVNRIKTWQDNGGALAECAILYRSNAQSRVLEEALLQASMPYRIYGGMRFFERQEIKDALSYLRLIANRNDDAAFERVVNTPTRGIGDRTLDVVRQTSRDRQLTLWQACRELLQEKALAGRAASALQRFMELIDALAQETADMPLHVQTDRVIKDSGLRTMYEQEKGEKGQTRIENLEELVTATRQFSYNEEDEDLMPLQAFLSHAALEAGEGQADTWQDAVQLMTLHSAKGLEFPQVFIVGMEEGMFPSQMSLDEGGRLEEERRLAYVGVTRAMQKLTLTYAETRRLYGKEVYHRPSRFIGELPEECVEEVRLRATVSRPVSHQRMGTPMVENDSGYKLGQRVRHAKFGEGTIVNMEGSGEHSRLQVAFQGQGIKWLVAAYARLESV
The experiment is described as above.

The chains behind the UniProt entries cited, without tags or fusion partners. Where a name states a change or a piece, a line headed by the entry shows the natural chain unless it says otherwise. Residues count along the entry.
UniProt P09980: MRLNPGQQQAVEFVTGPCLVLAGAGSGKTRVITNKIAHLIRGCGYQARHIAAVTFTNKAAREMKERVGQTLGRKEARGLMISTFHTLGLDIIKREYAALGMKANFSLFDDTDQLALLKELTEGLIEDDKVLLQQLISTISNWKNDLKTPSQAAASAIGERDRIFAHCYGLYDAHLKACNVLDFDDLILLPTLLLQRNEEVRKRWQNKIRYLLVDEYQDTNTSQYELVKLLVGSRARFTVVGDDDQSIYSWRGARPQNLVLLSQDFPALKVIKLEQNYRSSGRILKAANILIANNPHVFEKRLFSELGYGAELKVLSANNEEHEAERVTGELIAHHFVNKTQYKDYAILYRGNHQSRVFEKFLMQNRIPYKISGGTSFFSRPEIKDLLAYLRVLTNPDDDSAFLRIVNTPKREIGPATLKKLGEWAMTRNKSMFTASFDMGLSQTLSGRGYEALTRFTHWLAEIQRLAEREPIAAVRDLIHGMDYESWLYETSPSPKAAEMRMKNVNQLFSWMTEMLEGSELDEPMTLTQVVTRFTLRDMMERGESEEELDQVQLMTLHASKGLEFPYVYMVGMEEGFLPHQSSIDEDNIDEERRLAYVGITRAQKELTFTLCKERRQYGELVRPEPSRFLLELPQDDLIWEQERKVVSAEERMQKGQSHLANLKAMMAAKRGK
C33^Rep peptide (synthetic peptide corresponding to the C-terminal 33 residues of Rep): residues 641-673 of P09980
UniProt P0ACB0: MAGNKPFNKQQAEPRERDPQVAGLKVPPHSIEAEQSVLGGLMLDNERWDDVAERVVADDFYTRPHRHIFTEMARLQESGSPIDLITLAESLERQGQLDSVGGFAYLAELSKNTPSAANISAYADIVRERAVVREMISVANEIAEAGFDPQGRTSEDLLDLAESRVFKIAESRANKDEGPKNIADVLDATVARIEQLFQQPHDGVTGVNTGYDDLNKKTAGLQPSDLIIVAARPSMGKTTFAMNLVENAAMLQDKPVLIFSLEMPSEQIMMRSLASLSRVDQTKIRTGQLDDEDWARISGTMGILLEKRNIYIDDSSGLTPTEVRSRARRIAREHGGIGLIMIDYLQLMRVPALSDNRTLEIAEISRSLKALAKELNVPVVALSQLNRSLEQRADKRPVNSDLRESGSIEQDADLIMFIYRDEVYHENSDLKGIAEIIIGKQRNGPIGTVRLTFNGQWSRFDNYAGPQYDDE

These are yes or no findings as the source states them, for the method shown. For some of these results: In cells and extracts the contact can be indirect. Some results given as binding are weak or reduced against the parent protein; the word gives no strength.

As for “E. coli replicative helicase DnaB, purified (from UniProt P0ACB0 1-471) (enzyme)”, the binding result in experiment [1] and in experiment [2] was “binds” in each case.
In the case of “DnaB in E. coli whole-cell extract (from UniProt P0ACB0 1-471) (enzyme)”, the binding entry in experiment [3] is on record as “binds”; in experiment [4], “no binding”.

Source of the values: publication PMC2807033.
